Experimental data from publication PMC6874086.
Read-outs that look alike come from different tables or passages of the source. These are yes or no findings as the source states them, for the method shown. Binding seen in cells or lysates may run through a third protein. A yes stands for co-enrichment or nearness to the bait. Other partners may have been found. For part of these data: No binding means not detected with the bait.

Protein sequences, listed by entry. Tags and fused reporters are not part of them. Residues count along the entry.
UniProt P18541: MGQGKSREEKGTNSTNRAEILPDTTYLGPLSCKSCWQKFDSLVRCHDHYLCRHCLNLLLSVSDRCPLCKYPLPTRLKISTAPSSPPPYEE
UniProt O73557: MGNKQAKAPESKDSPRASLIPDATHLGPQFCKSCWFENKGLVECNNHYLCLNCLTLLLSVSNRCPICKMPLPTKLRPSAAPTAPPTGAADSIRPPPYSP
UniProt O60784: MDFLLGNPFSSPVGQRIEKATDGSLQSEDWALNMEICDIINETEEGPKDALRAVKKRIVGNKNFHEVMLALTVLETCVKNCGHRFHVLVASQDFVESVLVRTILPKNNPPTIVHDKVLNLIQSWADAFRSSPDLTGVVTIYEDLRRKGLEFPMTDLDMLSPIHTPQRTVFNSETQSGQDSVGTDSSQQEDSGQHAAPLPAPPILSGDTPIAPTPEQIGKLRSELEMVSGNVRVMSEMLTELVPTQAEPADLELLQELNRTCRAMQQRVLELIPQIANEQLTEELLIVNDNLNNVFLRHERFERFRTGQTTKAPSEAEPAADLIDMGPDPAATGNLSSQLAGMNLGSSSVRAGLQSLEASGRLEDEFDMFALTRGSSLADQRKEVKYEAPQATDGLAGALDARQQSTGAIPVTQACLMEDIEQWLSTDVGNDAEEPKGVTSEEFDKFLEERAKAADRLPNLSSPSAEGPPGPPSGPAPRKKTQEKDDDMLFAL
UniProt P46934: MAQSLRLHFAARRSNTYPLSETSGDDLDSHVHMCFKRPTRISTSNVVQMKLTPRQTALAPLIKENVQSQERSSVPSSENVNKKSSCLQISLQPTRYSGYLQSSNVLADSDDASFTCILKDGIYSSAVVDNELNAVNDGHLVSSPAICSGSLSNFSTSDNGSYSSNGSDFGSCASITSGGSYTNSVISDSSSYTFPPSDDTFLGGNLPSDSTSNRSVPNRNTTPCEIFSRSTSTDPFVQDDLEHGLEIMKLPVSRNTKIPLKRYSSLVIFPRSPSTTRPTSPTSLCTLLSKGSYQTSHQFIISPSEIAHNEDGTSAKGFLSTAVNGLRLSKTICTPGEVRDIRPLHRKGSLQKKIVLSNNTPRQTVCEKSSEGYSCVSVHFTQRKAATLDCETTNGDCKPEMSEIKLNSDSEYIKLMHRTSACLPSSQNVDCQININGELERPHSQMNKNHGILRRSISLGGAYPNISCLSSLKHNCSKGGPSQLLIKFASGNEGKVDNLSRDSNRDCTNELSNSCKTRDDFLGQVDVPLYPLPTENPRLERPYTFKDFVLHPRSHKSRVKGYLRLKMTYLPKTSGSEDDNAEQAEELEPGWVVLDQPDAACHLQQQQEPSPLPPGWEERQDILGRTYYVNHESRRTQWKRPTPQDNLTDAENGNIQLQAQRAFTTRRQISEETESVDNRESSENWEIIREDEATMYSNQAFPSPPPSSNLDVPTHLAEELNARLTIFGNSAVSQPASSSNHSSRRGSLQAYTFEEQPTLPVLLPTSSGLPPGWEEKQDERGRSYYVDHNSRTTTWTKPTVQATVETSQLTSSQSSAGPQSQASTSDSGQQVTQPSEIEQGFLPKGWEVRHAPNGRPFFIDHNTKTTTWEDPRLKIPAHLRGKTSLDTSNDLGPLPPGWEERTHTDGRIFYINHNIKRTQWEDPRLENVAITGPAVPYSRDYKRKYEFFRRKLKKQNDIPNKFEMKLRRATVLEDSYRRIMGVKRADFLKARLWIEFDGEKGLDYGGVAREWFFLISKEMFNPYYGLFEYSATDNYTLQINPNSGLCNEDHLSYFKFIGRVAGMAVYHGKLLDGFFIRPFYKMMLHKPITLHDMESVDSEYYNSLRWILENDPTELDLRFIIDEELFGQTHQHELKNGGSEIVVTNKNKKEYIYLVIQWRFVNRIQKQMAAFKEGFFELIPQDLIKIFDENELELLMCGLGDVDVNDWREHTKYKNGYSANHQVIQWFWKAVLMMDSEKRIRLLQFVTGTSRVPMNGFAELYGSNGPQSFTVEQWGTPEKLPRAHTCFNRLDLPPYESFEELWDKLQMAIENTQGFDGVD
UniProt O75351: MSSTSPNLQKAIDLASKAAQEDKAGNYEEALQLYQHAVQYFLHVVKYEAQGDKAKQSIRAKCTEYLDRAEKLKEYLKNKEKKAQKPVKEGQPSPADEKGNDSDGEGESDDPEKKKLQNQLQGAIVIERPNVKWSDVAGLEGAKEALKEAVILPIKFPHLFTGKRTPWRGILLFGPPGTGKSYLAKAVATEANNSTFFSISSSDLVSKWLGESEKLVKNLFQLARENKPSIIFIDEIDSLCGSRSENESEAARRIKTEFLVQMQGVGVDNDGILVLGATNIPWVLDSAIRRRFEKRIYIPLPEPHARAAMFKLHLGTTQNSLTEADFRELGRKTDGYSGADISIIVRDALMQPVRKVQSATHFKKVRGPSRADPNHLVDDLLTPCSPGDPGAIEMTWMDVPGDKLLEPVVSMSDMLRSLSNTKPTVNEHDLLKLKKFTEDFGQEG
UniProt P07996, residues 19-1170: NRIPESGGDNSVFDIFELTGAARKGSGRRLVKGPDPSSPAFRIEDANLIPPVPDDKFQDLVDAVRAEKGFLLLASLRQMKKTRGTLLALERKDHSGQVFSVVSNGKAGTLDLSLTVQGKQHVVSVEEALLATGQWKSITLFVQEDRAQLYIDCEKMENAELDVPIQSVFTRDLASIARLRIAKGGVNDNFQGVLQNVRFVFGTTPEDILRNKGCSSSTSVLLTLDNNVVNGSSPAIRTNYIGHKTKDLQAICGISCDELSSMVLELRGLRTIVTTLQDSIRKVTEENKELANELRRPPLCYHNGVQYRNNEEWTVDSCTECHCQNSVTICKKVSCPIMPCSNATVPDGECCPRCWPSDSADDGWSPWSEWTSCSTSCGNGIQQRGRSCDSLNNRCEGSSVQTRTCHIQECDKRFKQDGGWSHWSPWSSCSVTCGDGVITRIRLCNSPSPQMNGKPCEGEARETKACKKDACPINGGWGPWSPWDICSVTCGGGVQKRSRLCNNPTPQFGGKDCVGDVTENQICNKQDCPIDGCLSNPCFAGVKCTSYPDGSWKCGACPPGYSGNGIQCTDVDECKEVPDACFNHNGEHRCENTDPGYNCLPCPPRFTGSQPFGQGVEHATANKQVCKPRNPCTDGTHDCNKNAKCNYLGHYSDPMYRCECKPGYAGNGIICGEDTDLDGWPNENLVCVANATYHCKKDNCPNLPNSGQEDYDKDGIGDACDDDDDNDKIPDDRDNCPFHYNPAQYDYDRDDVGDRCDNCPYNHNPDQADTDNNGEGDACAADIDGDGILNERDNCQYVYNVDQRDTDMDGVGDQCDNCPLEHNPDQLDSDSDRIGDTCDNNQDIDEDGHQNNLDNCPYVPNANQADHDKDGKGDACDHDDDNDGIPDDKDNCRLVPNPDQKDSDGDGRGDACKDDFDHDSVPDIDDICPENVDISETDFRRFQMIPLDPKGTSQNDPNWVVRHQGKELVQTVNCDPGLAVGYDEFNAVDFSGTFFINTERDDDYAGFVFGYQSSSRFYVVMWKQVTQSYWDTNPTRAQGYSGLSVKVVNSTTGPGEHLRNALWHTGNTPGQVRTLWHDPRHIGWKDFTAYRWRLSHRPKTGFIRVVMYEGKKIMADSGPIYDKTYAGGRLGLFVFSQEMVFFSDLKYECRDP
UniProt Q99816: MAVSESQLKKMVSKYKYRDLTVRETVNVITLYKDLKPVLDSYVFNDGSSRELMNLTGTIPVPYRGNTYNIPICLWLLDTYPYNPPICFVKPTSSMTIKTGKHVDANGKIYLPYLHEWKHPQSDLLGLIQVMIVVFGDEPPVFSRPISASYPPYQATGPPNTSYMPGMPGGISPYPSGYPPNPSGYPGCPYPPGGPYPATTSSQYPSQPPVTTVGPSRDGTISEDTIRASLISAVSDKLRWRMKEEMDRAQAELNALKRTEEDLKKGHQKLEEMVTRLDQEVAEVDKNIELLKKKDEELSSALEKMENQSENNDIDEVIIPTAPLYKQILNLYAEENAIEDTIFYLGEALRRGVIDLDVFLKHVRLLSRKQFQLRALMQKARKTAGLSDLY
UniProt Q9UN37: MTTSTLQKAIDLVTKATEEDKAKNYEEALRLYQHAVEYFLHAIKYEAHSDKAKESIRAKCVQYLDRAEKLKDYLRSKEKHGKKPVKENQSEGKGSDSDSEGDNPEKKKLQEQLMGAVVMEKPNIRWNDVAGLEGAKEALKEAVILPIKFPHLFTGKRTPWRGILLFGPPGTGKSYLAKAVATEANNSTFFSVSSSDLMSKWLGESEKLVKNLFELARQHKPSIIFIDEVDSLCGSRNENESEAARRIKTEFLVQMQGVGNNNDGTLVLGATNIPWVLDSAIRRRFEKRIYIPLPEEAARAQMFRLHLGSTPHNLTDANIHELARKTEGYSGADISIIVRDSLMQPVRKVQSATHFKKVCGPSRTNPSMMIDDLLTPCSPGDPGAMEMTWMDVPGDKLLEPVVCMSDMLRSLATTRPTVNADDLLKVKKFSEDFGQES
UniProt O14964: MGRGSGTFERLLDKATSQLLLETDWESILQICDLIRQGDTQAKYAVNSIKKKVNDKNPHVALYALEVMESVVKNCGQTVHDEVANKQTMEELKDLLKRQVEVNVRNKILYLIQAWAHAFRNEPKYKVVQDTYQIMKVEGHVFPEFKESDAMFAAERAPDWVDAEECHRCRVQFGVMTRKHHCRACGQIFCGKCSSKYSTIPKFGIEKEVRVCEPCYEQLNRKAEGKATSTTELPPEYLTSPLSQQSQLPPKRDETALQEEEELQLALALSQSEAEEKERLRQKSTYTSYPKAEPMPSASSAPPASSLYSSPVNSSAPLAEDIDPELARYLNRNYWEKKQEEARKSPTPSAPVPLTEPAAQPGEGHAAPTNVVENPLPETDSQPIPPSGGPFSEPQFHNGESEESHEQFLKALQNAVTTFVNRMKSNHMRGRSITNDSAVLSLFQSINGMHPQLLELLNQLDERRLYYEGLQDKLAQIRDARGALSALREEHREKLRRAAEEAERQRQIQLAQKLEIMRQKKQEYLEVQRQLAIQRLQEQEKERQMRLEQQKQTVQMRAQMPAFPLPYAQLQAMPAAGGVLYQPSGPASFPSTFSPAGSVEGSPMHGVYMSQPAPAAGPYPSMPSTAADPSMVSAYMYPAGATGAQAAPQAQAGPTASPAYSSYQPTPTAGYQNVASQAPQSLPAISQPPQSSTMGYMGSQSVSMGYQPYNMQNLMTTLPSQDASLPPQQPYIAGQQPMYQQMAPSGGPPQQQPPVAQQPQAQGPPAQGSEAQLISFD
UniProt Q8WUM4: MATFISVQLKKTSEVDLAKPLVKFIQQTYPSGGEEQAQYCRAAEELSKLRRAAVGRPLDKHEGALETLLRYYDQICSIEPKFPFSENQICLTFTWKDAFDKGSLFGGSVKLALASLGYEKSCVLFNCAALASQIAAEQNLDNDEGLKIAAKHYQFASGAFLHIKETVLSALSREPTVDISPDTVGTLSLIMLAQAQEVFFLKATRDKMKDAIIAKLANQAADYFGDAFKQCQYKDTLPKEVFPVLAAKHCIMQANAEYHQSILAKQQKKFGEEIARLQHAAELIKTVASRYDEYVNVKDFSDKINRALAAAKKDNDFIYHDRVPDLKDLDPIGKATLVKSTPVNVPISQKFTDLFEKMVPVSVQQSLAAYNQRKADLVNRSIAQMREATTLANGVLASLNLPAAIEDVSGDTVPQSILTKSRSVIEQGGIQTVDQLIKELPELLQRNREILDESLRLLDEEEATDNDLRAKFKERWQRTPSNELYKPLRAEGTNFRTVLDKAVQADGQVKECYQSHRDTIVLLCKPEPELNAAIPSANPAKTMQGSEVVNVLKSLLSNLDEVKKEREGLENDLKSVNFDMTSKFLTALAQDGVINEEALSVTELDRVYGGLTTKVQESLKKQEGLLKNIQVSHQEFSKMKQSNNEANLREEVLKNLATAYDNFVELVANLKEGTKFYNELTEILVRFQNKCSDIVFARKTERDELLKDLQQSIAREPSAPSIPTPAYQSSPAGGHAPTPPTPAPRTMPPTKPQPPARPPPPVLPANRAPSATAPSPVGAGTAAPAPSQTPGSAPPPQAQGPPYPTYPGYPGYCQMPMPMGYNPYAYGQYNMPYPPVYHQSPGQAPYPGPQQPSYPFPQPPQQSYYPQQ
UniProt O00560: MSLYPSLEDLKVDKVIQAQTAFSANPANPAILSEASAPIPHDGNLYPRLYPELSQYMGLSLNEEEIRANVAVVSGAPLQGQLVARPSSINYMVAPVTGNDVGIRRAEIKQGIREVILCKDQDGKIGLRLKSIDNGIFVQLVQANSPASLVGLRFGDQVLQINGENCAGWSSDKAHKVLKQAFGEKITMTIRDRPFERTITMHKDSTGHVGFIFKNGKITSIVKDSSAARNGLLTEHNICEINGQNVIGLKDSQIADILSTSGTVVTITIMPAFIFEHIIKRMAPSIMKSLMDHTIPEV

Experiments:
Assay in all cases: affinity purification with mass spectrometry
[1] = target: LCMV Z WT with a C-terminal streptavidin binding peptide (SBP) tag (LCMV) (UniProt P18541)
[2] = target: LASV Z WT with a C-terminal streptavidin binding peptide (SBP) tag (Lassa virus) (UniProt O73557)
[3] = target: LASV Z WT with a C-terminal streptavidin binding peptide (SBP) tag (Lassa virus) (UniProt O73557); remark: listed apart in the source
[4] = target: LCMV Z WT with a C-terminal streptavidin binding peptide (SBP) tag (LCMV) (UniProt P18541); remark: listed apart in the source

Question: With TOM1 (from UniProt O60784 1-492) as the molecule, how does the binding [1] read?
Answer: Its binding is “binds”.

Question: Which binding [1] does the source give for “Nedd4 (from UniProt P46934 1-1319) (enzyme)” here?
Answer: Its binding is “binds”.

Question: Which binding [1] does the source give for “VPS4B (from UniProt O75351 1-444) (enzyme)” here?
Answer: The binding was “binds”.

Question: For “thrombospondin 1 (THBS1) (from UniProt P07996 19-1170)”, which binding [2] is on record?
Answer: The binding was “binds”.

Question: And the binding [1]?
Answer: The binding was “binds”.

Question: Which results are given for Tsg101 (from UniProt Q99816 1-390)?
Answer: binding [2]: binds; binding [1]: no binding

Question: “VPS4A (from UniProt Q9UN37 1-437) (enzyme)” was tested. Which binding [1] did it give?
Answer: Its binding is “binds”.

Question: Which results are given for “Hrs (official gene symbol HGS) (from UniProt O14964 1-777)”?
Answer: binding [2]: binds; binding [1]: binds

Question: How did the binding [1] turn out when “ALIX (official gene symbol PDCD6IP) (from UniProt Q8WUM4 1-868)” was run?
Answer: Its binding is “binds”.

Question: For “Syntenin (SDCBP) (from UniProt O00560 1-298)”, which binding [2] is on record?
Answer: The binding was “binds”.

Question: What about the binding [1] of the same molecule?
Answer: The binding was “binds”.

B1: annexin A6 (ANXA6) (protein, UniProt P08133 1-673)
chain: MAKPAQGAKYRGSIHDFPGFDPNQDAEALYTAMKGFGSDKEAILDIITSRSNRQRQEVCQSYKSLYGKDLIADLKYELTGKFERLIVGLMRPPAYCDAKEIKDAISGIGTDEKCLIEILASRTNEQMHQLVAAYKDAYERDLEADIIGDTSGHFQKMLVVLLQGTREEDDVVSEDLVQQDVQDLYEAGELKWGTDEAQFIYILGNRSKQHLRLVFDEYLKTTGKPIEASIRGELSGDFEKLMLAVVKCIRSTPEYFAERLFKAMKGLGTRDNTLIRIMVSRSELDMLDIREIFRTKYEKSLYSMIKNDTSGEYKKTLLKLSGGDDDAAGQFFPEAAQVAYQMWELSAVARVELKGTVRPANDFNPDADAKALRKAMKGLGTDEDTIIDIITHRSNVQRQQIRQTFKSHFGRDLMTDLKSEISGDLARLILGLMMPPAHYDAKQLKKAMEGAGTDEKALIEILATRTNAEIRAINEAYKEDYHKSLEDALSSDTSGHFRRILISLATGHREEGGENLDQAREDAQVAAEILEIADTPSGDKTSLETRFMTILCTRSYPHLRRVFQEFIKMTNYDVEHTIKKEMSGDVRDAFVAIVQSVKNKPLFFADKLYKSMKGAGTDEKTLTRIMVSRSEIDLLNIRREFIEKYDKSLHQAIEGDTSGDFLKALLALCGGED
Question: How did the binding [3] turn out when B1 was run?
Answer: The binding was “binds”.

Question: What about the binding [4] of the same molecule?
Answer: Its binding is “binds”.
